# Where a name gives a salt, the structure may show the parent alone. Out of some 1,200 compounds screened, about 50 (4%) showed activity. Rule as the data show it: all actives reach 1.3 or more but so do some inactives. Some of the results follow.
# Test system: Lgr5 (MarsCy1-Lgr5-EGFP, U2OS)
# Experiment: cell-surface Lgr5 expression (SCi1 fluorescence, background-subtracted) relative to WT DMSO (fold of DMSO control); higher = more Lgr5 at the plasma membrane, active = hit call of the paper
# Settings: U2OS MarsCy1-Lgr5-EGFP stable; treatment time: overnight; 16 µM; library: Johns Hopkins Clinical Compound Library
row,SMILES,cell-surface Lgr5 expression
1,C[N+](C)(C)CCCCCCCCCC[N+](C)(C)C [Decamethonium Bromide],inactive: 1.27
2,O=Cc1ccccc1 [Benzaldehyde],inactive: 1.03
3,COc1cccc(C2(O)CCCCC2CN(C)C)c1 (stereo unspecified) [Tramadol hydrochloride],inactive: 1.07
4,N.N.[Cl][Pt][Cl] [Cisplatin],inactive: 1.14
5,CC(C)(O)C(Cl)(Cl)Cl [Chlorobutanol],inactive: 1.26
6,CNc1ccc(C(=O)CC(O)CCC(C)C2OC(=O)CC(O)CC(=O)CC(O)CC(O)CC(O)CC(O)CC3(O)CC(O)C(C(=O)OC)C(CC(O[C@@H]4O[C@H](C)[C@@H](O)[C@H](N)[C@@H]4O)/C=C/C=C/C=C/C=C/C=C/C=C/C=C/C2C)O3)cc1.COC(=O)C1C(O)CC2(O)CC(O)CC(O)CC(O)CC(O)CC(=O)CC(O)CC(=O)OC(C(C)CCC(O)CC(=O)c3ccc(N)cc3)C(C)/C=C/C=C/C=C/C=C/C=C/C=C/C=C/C(O[C@@H]3O[C@H](C)[C@@H](O)[C@H](N)[C@@H]3O)CC1O2 (stereo partly specified) [Mepartricin],inactive: 0.888
7,Nc1ccccc1C(=O)O [Anthranilic acid (2-aminobenzoic acid)],inactive: 1.13
8,CCCCNCC(O)c1ccc(O)cc1 (stereo unspecified) [Bamethan sulfate (Bamethane)],inactive: 1.33
9,[Cl][Cr]([Cl])[Cl] [Chromium (III) chloride],inactive: 0.925
10,COC(=O)c1ccccc1C(=O)OC [Dimethyl phthalate],inactive: 1
11,CC(C)N(CCC(C(N)=O)(c1ccccc1)c1ccccn1)C(C)C (stereo unspecified) [Disopyramide],inactive: 1.13
12,N[C@@H](Cc1ccc(N(CCCl)CCCl)cc1)C(=O)O [Melphalan],inactive: 1.14
13,CO[C@@H]1[C@H](OC(=O)NC(=O)CCl)CC[C@]2(CO2)[C@H]1[C@@]1(C)O[C@@H]1CC=C(C)C,inactive: 1.29
14,CN[C@@H]1C[C@@H](c2ccc(Cl)c(Cl)c2)c2ccccc21 [Indatraline hydrochloride],inactive: 1.23
15,C=CCC1=C(C)C(OC(=O)[C@@H]2[C@@H](C=C(C)C)C2(C)C)CC1=O (stereo partly specified) [Bioallethrin],inactive: 1.32
16,CN1[C@@H]2CC[C@H]1C[C@@H](OC(=O)[C@H](CO)c1ccccc1)C2 [L-Hyoscyamine hydrochloride],inactive: 1.12
17,CCCC(C)(COC(N)=O)COC(N)=O [Meprobamate],inactive: 0.458
18,CCCN1CCC[C@@H]2Cc3nc(N)ncc3C[C@H]21 [Quinelorane dihydrochloride],inactive: 0.977
19,COc1ccc(OC)c(C(O)C(C)NC(C)(C)C)c1 (stereo unspecified) [Butoxamine hydrochloride],inactive: 1.23
20,CNC(C)Cc1ccc(O)cc1 (stereo unspecified) [Pholedrine (p Hydroxymethamphetamine)],inactive: 1.1
21,CCOP(=S)(OCC)SCSc1ccc(Cl)cc1 [Carbophenothion],inactive: 1.03
22,C=CCN=C=S [Allyl isothiocyanate],inactive: 0.99
23,C=C[C@H]1CN2CC[C@H]1C[C@@H]2[C@@H](O)c1ccnc2ccccc12 [Cinchonine sulfate],inactive: 1.25
24,CC(Cc1ccc(O)cc1)NCC(O)c1cc(O)cc(O)c1 (stereo unspecified) [Fenoterol],inactive: 1.13

row,SMILES,cell-surface Lgr5 expression
1,CC(C)CC(N(C)C)C1(c2ccc(Cl)cc2)CCC1 (stereo unspecified) [Sibutramine HCl],inactive: 1.12
2,CC(C)[N+](C)(CCC(C(N)=O)(c1ccccc1)c1ccccc1)C(C)C [Isopropamide iodide],inactive: 1.06
3,CCCCOC(=O)C1=CC(=O)CC(C)(C)O1 [Butopyronoxyl],inactive: 1.01
4,[Bi+3].[O-]c1c(Br)cc(Br)cc1Br.[O-]c1c(Br)cc(Br)cc1Br.[O-]c1c(Br)cc(Br)cc1Br [Bismuth tribromophenate],inactive: 1.13
5,C[C@]12CC[C@H]3[C@@H](CC[C@]4(O)C[C@@H](O)CC[C@]34C=O)[C@@]1(O)CC[C@@H]2C1=CC(=O)OC1 [Strophanthidin],inactive: 0.301
6,CCN(CC)C(=O)N[C@H]1C=C2c3cccc4[nH]cc(c34)C[C@H]2N(C)C1 [Lisuride],inactive: 1.1
7,C=CCN1C[C@H](C(=O)N(CCCN(C)C)C(=O)NCC)C[C@@H]2c3cccc4[nH]cc(c34)C[C@H]21 [Cabergoline],inactive: 0.958
8,O=P1(NCCCl)OCCCN1CCCl (stereo unspecified) [Ifosfamide],inactive: 1.19
9,CN1CC[C@@]2(C)c3cc(O)ccc3N(C)[C@@H]12 [Eseroline],inactive: 0.813
10,O=C(O)COc1ccccc1 [Phenoxyacetic acid],inactive: 1.04
11,CN1CCN(C(=O)OC2c3nccnc3C(=O)N2c2ccc(Cl)cn2)CC1 (stereo unspecified) [Zopiclone],inactive: 1.01
12,Oc1ccc(CCN2CCC(Nc3nc4ccccc4n3Cc3ccc(F)cc3)CC2)cc1 [Desmethylastemizole],inactive: 0.724
13,NC(=O)C[S+]([O-])C(c1ccccc1)c1ccccc1 (stereo unspecified) [Modafinil],inactive: 1.04
14,[O-][Cl+2]([O-])O [Potassium chlorate],inactive: 0.901
15,CCC(Br)(CC)C(=O)NC(N)=O [Carbromal (Bromodiethylacetylurea)],inactive: 0.442
16,CC(=O)OCC1=C(C(=O)O)N2C(=O)[C@@H](NC(=O)CCC[C@@H](N)C(=O)O)[C@H]2SC1 [Cephalosporin c],inactive: 0.958
17,CN1CC[C@@]23CCCC[C@@H]2[C@@H]1Cc1ccc(O)cc13 [Dextrorphan],inactive: 1.26
18,CN1CC[C@@]23CCCC[C@@H]2[C@@H]1Cc1ccc(O)cc13 [Dextrorphan tartrate],inactive: 1.16
19,"CNC(C)C(O)c1ccccc1 [(1R,2S)-(-)-Ephedrine]",inactive: 1.16
20,CC[C@H]1CN2CCc3cc(OC)c(OC)cc3[C@@H]2C[C@@H]1C[C@H]1NCCc2cc(OC)c(OC)cc21 [Emetine],inactive: 0.217
21,CC[C@H]1[C@@H]2C[C@H]3[C@@H]4N(C)c5ccccc5[C@]45C[C@@H]([C@@H]2[C@H]5O)N3[C@@H]1O [Ajmaline],inactive: 1.33
22,CC1(C)C(C=C(Cl)Cl)C1C(=O)OCc1cccc(Oc2ccccc2)c1 (stereo unspecified) [Permethrin],inactive: 1.15
23,COc1ccc2c(c1)[nH]c1c(C)nccc12 [Harmine],inactive: 0.408
24,COc1ccc(C[C@H]2NC[C@H](O)[C@H]2OC(C)=O)cc1 [Anisomycin],inactive: 0.0213

row,SMILES,cell-surface Lgr5 expression
1,CCC(COC(=O)c1cc(OC)c(OC)c(OC)c1)(c1ccccc1)N(C)C (stereo unspecified) [Trimebutine],inactive: 1.22
2,C=C(C)[C@@H]1[C@H]2OC(=O)[C@@H]1[C@]1(O)C[C@H]3OC34C(=O)O[C@H]2[C@@]41C.CC(C)(O)[C@@H]1[C@H]2OC(=O)[C@@H]1[C@]1(O)C[C@H]3OC34C(=O)O[C@H]2[C@@]41C (stereo partly specified) [Picrotoxin],inactive: 0.483
3,CO[C@]12C[C@@H](COC(=O)c3cncc(Br)c3)CN(C)[C@@H]1Cc1cn(C)c3cccc2c13 [Nicergoline],inactive: 1.14
4,CC(CC(C(N)=O)(c1ccccc1)c1ccccc1)N(C)C (stereo unspecified) [Aminopentamide sulfate],inactive: 1.18
5,OC[C@@H](O)[C@H]1O[C@@H]2O[C@H](C(Cl)(Cl)Cl)O[C@@H]2[C@H]1O [Chloralose (alpha-Chloralose)],inactive: 0.958
6,C[C@]12Cc3c[nH]nc3C[C@@H]1CC[C@@H]1[C@@H]2CC[C@@]2(C)[C@H]1CC[C@]2(C)O [Stanozolol],inactive: 1.03
7,CCOC(=O)C1(c2ccccc2)CCN(CCC(C#N)(c2ccccc2)c2ccccc2)CC1.CN1C2CCC1CC(OC(=O)C(CO)c1ccccc1)C2 [Diphenoxylate hydrochloride/Atropine sulfate],inactive: 1.09
8,CCC(C)(C)O [Amylene hydrate (tert-Amyl alcohol)],inactive: 1.2
9,CC(C)(C)NCC(O)c1ccccc1Cl (stereo unspecified) [Tulobuterol],active: 1.42
10,"OCC(Br)(Br)Br [Tribromoethanol (2,2,2-Tribromoethanol)]",inactive: 1.25
11,COc1ccc(CCN2CCC(Nc3nc4ccccc4n3Cc3ccc(F)cc3)CC2)cc1 [Astemizole],inactive: 1.3
12,CC1=C2[C@H]3OC(=O)[C@@H](C)[C@@H]3CC[C@@]2(C)C=CC1=O [Santonin],inactive: 1.25
13,NCC(O)c1cccc(O)c1 (stereo unspecified) [Norfenefrine (Norphenylephrine hydrochloride)],inactive: 1.41
14,O=C(N/N=C/c1ccc([N+](=O)[O-])o1)c1cc([N+](=O)[O-])cc([N+](=O)[O-])c1O [Nifursol],inactive: 1.07
15,CCN [Ethylamine],inactive: 0.974
16,CCC(C)(C)C1C(=O)N2CCCC2C2(O)OC(NC(=O)C3CC4c5cccc6[nH]cc(c56)CC4N(C)C3)(C(C)C)C(=O)N12 (stereo unspecified) [Ergoloid mesylate],inactive: 0.76
17,CNCC(=O)c1ccc(O)c(O)c1 [Adrenalone hydrochloride],inactive: 1.31
18,C[N+]1(C)[C@@H]2C[C@@H](OC(=O)[C@H](CO)c3ccccc3)C[C@H]1[C@@H]1O[C@@H]12 [Scopolamine methyl bromide],inactive: 1.07
19,CCn1cc(C(=O)O)c(=O)c2cc3c(cc21)OCO3 [Oxolinic acid],inactive: 0.903
20,CN(C)C(=O)Oc1cc(OC(=O)N(C)C)cc(C(O)CNC(C)(C)C)c1 (stereo unspecified) [Bambuterol],inactive: 1.21
21,O=[N+]([O-])[O-].[K+] [Potassium nitrate],inactive: 0.886
22,OCCN(CCO)CCO [Trolamine (Triethanolamine hydrochloride)],inactive: 0.803
23,COc1ccc(O)c(C(C)(C)C)c1.COc1ccc(O)cc1C(C)(C)C [Butylated hydroxyanisole],inactive: 1.15

# As entered above:
# CC(CC(C(N)=O)(c1ccccc1)c1ccccc1)N(C)C (stereo unspecified) [Aminopentamide sulfate] | cell-surface Lgr5 expression: inactive: 1.18
# CCC(C)(C)O [Amylene hydrate (tert-Amyl alcohol)] | cell-surface Lgr5 expression: inactive: 1.2
# CC(C)(C)NCC(O)c1ccccc1Cl (stereo unspecified) [Tulobuterol] | cell-surface Lgr5 expression: active: 1.42

# From the supplement of paper PMC4683952
